The values that follow come from publication PMC11984394.

By UniProt entry, the sequences of proteins in these tests, tags left out. Residues count along the entry.
UniProt P21802, residues 22-821: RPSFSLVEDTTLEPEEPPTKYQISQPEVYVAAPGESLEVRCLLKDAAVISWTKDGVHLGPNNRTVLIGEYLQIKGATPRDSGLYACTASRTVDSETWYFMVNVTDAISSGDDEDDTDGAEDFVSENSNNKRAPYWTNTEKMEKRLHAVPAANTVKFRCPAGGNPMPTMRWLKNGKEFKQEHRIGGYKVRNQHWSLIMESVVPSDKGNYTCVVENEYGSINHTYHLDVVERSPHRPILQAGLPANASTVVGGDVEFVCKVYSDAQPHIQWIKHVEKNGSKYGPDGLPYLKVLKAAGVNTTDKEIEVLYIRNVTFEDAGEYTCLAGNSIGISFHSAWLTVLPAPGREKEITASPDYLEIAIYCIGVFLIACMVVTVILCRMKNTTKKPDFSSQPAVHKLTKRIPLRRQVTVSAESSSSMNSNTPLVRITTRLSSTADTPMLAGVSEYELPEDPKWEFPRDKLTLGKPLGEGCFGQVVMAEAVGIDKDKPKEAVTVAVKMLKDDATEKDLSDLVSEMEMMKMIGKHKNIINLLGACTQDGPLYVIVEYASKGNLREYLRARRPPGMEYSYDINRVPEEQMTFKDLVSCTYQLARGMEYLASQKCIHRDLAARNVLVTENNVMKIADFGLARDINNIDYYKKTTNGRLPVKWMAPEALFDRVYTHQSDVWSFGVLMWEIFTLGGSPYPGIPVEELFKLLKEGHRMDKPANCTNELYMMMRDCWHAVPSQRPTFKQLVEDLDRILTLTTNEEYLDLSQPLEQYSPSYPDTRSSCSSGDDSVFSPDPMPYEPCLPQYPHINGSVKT

The assay deals with T1, recombinant human SFRP1 protein (human) (UniProt Q8N474).
T1 sequence: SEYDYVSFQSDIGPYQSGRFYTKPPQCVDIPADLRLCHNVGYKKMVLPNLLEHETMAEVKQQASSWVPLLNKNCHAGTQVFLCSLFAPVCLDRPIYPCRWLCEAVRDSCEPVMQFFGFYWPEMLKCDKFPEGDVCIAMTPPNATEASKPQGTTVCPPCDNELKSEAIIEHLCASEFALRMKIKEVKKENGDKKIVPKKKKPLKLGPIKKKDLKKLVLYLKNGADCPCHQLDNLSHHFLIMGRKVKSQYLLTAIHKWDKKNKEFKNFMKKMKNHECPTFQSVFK
Briefly: affinity purification with mass spectrometry; rhSFRP1 added to 7 x 10^6 SW480 cells for 48 h; IP with 10 ug SFRP1-specific antibody or species-matched normal IgG (Pierce Crosslink Magnetic IP/Co-IP Kit); SDS-PAGE, silver staining, bands excised and analysed by MS; only the target purified.

Results are given in words; binding and its absence hold for the method and conditions named. Binding seen in cells or lysates may run through a third protein. Here binding means that the protein was enriched with, or labelled near, the bait; the list need not be complete.

On to “FGFR2 receptor (from UniProt P21802 22-821)”, for which the binding result was “binds”.
